Reference: paper PMC10501992, “How Pol α-primase is targeted to replisomes to prime eukaryotic DNA replication” (Molecular Cell, 2023)
No constants are given. Whether binding was seen depends on the method and setting.

Target: T1, MCM5 (human) (human) (UniProt P33992)
T1 sequence: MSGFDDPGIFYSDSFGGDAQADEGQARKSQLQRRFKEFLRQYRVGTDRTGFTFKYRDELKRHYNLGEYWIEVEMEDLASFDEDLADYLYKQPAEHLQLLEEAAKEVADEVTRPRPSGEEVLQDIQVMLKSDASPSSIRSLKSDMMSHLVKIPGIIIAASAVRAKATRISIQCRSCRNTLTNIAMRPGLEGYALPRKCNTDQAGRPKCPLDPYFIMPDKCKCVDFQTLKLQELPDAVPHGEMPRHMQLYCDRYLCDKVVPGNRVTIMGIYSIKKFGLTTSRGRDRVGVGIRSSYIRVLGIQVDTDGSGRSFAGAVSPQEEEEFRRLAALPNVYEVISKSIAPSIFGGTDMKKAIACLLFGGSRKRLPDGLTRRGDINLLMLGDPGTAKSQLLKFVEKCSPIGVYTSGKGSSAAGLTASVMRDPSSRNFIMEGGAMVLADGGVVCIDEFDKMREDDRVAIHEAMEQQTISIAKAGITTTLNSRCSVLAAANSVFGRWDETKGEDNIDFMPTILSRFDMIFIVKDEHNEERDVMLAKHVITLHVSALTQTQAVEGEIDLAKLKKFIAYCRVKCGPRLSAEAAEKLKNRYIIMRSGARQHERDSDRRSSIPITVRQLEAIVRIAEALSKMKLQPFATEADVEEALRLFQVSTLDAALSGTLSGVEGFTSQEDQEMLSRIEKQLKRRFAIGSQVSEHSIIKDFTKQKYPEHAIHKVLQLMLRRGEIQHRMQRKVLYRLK
Experiment: cryo-EM structure; human replisome: 150 nM CMG on fork DNA (60 nt or 15 nt 5′ flap) with 1.5-fold molar excess of AND-1, TIMELESS-TIPIN, CLASPIN and Pol α-primase; 25 mM HEPES-NaOH pH 7.6, 150 mM NaOAc, 0.5 mM TCEP, 500 μM AMP-PNP, 10 mM Mg(OAc)2, on ice; 10-30% glycerol gradient with glutaraldehyde and BS3 cross-linkers; both purified

B1: PRIM2 (human primase accessory subunit) (natural protein)
chain: MEFSGRKWRKLRLAGDQRNASYPHCLQFYLQPPSENISLIEFENLAIDRVKLLKSVENLGVSYVKGTEQYQSKLESELRKLKFSYRENLEDEYEPRRRDHISHFILRLAYCQSEELRRWFIQQEMDLLRFRFSILPKDKIQDFLKDSQLQFEAISDEEKTLREQEIVASSPSLSGLKLGFESIYKIPFADALDLFRGRKVYLEDGFAYVPLKDIVAIILNEFRAKLSKALALTARSLPAVQSDERLQPLLNHLSHSYTGQDYSTQGNVGKISLDQIDLLSTKSFPPCMRQLHKALRENHHLRHGGRMQYGLFLKGIGLTLEQALQFWKQEFIKGKMDPDKFDKGYSYNIRHSFGKEGKRTDYTPFSCLKIILSNPPSQGDYHGCPFRHSDPELLKQKLQSYKISPGGISQILDLVKGTHYQVACQKYFEMIHNVDDCGFSLNHPNQFFCESQRILNGGKDIKKEPIQPETPQPKPSVQKTKDASSALASLNSSLEMDMEGLEDYFSEDS
notes: PRIM2, human; modelled residues 1-5 (N terminus) and 17-252 (NTD); stood in the assay as a subunit of m18; also called PRIM2NTD; PRIM2_(Nterm)
Q: How did the binding turn out when B1 was run?
A: The binding was “no binding”.
